Some of the results follow.

This test can be described thus: inhibitors of GR-EGFP nuclear translocation, primary screen, dynein cargo transport inhibitor project, imaging, high-content, 3617.4 mouse cells (AID 1381). As to conditions: stimulated with dexamethasone, 1 µM.
[1] abbreviates: measured here: cell count per field, at 50 µM.
Setting [2] is: measured here: cytoplasmic GR-EGFP intensity, at 50 µM, stronger effect = higher value.
Where [3] appears, read: measured here: nuclear GR-EGFP intensity, at 50 µM, stronger effect = lower value.
Setting [4] is: measured here: cell count per field, at 20 µM.
The mark [5] stands for this setting: measured here: cytoplasmic GR-EGFP intensity, at 20 µM, stronger effect = higher value.
The mark [6] stands for this setting: measured here: nuclear GR-EGFP intensity, at 20 µM, stronger effect = lower value.

On to `CC1CCN(C(=O)Oc2c(Cl)cc(Cl)c3cccnc23)CC1`, for which the z-score is, setting by setting: under setting [1], -0.295; under setting [2], -0.26; under setting [3], -0.868.
For `CC(C)=N/N=C(\N)N[N+](=O)[O-]`, the z-score by setting is: under setting [4], 0.242; under setting [5], -0.316; under setting [6], -0.109.
For `CN(C)C(=O)c1c([N+](=O)[O-])cc([N+](=O)[O-])cc1[N+](=O)[O-]`, the z-score was 0.303 under setting [4], 0.8 under setting [5] and -0.663 under setting [6].
For `CN(C)C(=O)OCCc1n(C)cc[n+]1C`, the z-score was 0.319 under setting [4], -0.311 under setting [5] and -0.496 under setting [6].
For `CCN(CC)CC(O)COC(=O)C(O)(c1ccccc1)C1CCCCC1` (centres undefined) the same measures were -0.383, -0.233 and 0.157.
On the same counts, the results for `COc1ccc(C2=NCC(CBr)S2)cc1` (centres undefined) are -0.129, -0.241 and 0.329.
Consider `COc1ccc(OP(C)(=O)Nc2ccc(Br)cc2)cc1` (centres undefined), for which the z-score by setting is: under setting [4], -1.95; under setting [5], -0.107; under setting [6], 0.585.
On the same counts, the results for `Cc1ccc(NP(=O)(Oc2ccccc2)Oc2ccccc2)nc1` are 1.35, -0.37 and -0.299.
As to `CP(=O)(Oc1ccccc1)N1CCOC1=O` (centres undefined), the z-score was 1.23 under setting [4], -0.226 under setting [5] and -0.45 under setting [6].
Turning to `O=[N+]([O-])c1cc([N+](=O)[O-])c(CCNc2ccccc2)c([N+](=O)[O-])c1`, the z-score runs as follows: under setting [4], -0.0498; under setting [5], -0.0466; under setting [6], 0.181.
With `CCc1nc2c(n1)c1c(non1O)c1c2no[n+]1[O-]`, the z-score was 0.289 under setting [4], 1.74 under setting [5] and -1.09 under setting [6].
For `CCc1ccc(OP(C)(=O)Nc2cccnc2)cc1` (centres undefined) the same measures were 0.0995, -0.317 and 0.227.
On the same counts, the results for `COc1ccccc1OP(C)(=O)Nc1c(C)n(C)n(-c2ccccc2)c1=O` (centres undefined) are 1.61, -0.55 and -0.615.
On the same counts, the results for `CC(=O)N1C2C3N(C(C)=O)C1C1N(C(C)=O)C(C(N1C(C)=O)N3C(C)=O)N2C(C)=O` are 0.727, -0.226 and -0.56.
For the compound `O=[N+]([O-])c1cccc2n[nH]nc12`, the z-score runs as follows: under setting [1], -1.1; under setting [2], -0.114; under setting [3], 0.362.
In turn, `O=C(OCCCN1CCCC1)C(O)(c1ccccc1)C1CCCCC1` (centres undefined) yielded a z-score under setting [4] of 0.416, a z-score under setting [5] of -0.145 and a z-score under setting [6] of 0.0393.
For `Oc1ccccc1CNc1ccccn1` the same measures were 0.533, -0.18 and 0.00642.
Turning to `Cc1c2non([O-])c-2c(C)[n+](=O)[n+]1[O-]`, the z-score is -3.42 under setting [4], 3.61 under setting [5] and -0.963 under setting [6].
On to `O=C(NC(Sc1ccncn1)C(Cl)(Cl)Cl)c1ccccc1` (centres undefined), for which the z-score was -0.971 under setting [4], -0.238 under setting [5] and -0.0532 under setting [6].
For `O=[N+]([O-])c1cc([N+](=O)[O-])c(Nc2ccccn2)c([N+](=O)[O-])c1` the same measures were 0.791, -0.0412 and -0.469.
For `CC(C)CC(=O)NC(Sc1ccc(Cl)cc1)C(Cl)(Cl)Cl` (centres undefined) the same measures were 0.472, 0.201 and -0.614.
On to `Nc1cc(N)c2nonc2c1[N+](=O)[O-]`, for which the z-score was -1.05 under setting [4], 0.288 under setting [5] and 0.751 under setting [6].
As for `Cc1c(NP(C)(=O)Oc2ccc(C(C)C)cc2)c(=O)n(-c2ccccc2)n1C` (centres undefined), the z-score reads like this: under setting [1], -0.854; under setting [2], -0.163; under setting [3], 0.499.
For `CCc1ccc(OP(C)(=O)O)cc1` the same measures were 0.359, -0.247 and -0.9.
For `CP(=O)(Nc1ccccn1)Oc1ccccc1` (centres undefined) the same measures were -0.527, -0.161 and 0.793.
In the case of `COc1ccccc1OP(C)(=O)Nc1ccc(C)cc1C` (centres undefined), the z-score runs as follows: under setting [4], -0.611; under setting [5], -0.138; under setting [6], 1.32.
On the same counts, the results for `COc1ccccc1OP(C)(=O)Nc1ccc(Br)cc1` (centres undefined) are 0.892, -0.224 and -0.0444.
For `Cc1ccc(N/C(=N/P(=O)(N2CCOCC2)N2CCOCC2)N2CCOCC2)cc1` the same measures were -1.2, -0.0132 and -0.207.
On the same counts, the results for `NC(=O)c1cc([N+](=O)[O-])cc([N+](=O)[O-])c1N` are 0.639, -0.301 and -0.389.
In the case of `CN(C)CCOC(=O)C(O)(c1ccccc1)C1CCCC1` (centres undefined), the z-score under setting [1] was 1.12, the z-score under setting [2] was -0.186 and the z-score under setting [3] came to 0.255.
As for `Clc1ccc(Cl)c(NC2=NCC(CBr)S2)c1` (centres undefined), the z-score is 0.19 under setting [4], -0.29 under setting [5] and 0.204 under setting [6].
Turning to `CN1CCCC(OC(=O)C(c2ccccc2)c2ccccc2)C1` (centres undefined), the z-score reads like this: under setting [1], -0.0971; under setting [2], -0.216; under setting [3], 0.222.
On to `COc1ccc(OP(C)(=O)Nc2ccccn2)cc1` (centres undefined), for which the z-score was -0.348 under setting [4], -0.307 under setting [5] and 0.156 under setting [6].
`COc1ccccc1OP(=O)(Nc1ccc(C)cn1)Oc1ccccc1OC`: the z-score by setting is: under setting [4], -1.32; under setting [5], -0.0201; under setting [6], 2.12.
On the same counts, the results for `Cc1ccc(OP(=O)(Nc2nccs2)Oc2ccc(C)cc2)cc1` are -0.32, -0.0302 and 0.731.
On the same counts, the results for `Cc1nc2ccc3ccccc3c2o1.O=[N+]([O-])c1cc([N+](=O)[O-])c(O)c([N+](=O)[O-])c1` are 0.0796, -0.102 and -0.138.
On the same counts, the results for `Nc1cccc2ccc([As](=O)(O)O)cc12` are 0.0841, -0.215 and -0.00661.
Consider `CP(=O)(OCCOc1ccccc1)OCCOc1ccccc1`, for which the z-score was 0.307 under setting [4], -0.126 under setting [5] and 0.342 under setting [6].
On the same counts, the results for `CP(=O)(Nc1ccc(Cl)cc1Cl)Oc1ccccc1` (centres undefined) are -0.039, -0.239 and -0.00561.
For `CCN(N=Nc1nonc1N)c1nonc1N` the same measures were 0.35, -0.247 and 0.0558.
Turning to `Cc1cc(C)cc(OP(C)(=O)Nc2cccc(C(F)(F)F)c2)c1` (centres undefined), the z-score reads like this: under setting [4], 0.455; under setting [5], -0.358; under setting [6], 0.0954.
With `O=P(Nc1nc2ccc(Cl)cc2s1)(c1ccccc1)c1ccccc1`, the z-score runs as follows: under setting [4], 0.64; under setting [5], -0.263; under setting [6], -0.429.
Compound `O=C(O)c1ccccc1[As](=O)(O)O` yielded a z-score under setting [4] of -0.275, a z-score under setting [5] of -0.302 and a z-score under setting [6] of 0.367.
On the same counts, the results for `CC(=O)Nc1ccc([As](=O)(O)O)cc1` are 0.308, -0.133 and -0.135.
For `COc1ccc(OP(C)(=O)Nc2ccccc2Br)cc1` (centres undefined) the same measures were -0.163, -0.0734 and 0.825.
On to `CCOP(=O)(Nc1ccccc1)OCC`, for which the z-score was -1.3 under setting [4]; 0.789 under setting [1]; -0.25 under setting [5]; -0.195 under setting [2]; 1.11 under setting [6]; -0.613 under setting [3].
Turning to `Cc1cc(SC(NC(=O)c2ccc(F)cc2)C(Cl)(Cl)Cl)ncn1` (centres undefined), the z-score is -0.172 under setting [4], -0.226 under setting [5] and 0.0236 under setting [6].
`Cc1ccc(NP(=O)(Oc2ccccc2F)Oc2ccccc2F)nc1` showed a z-score under setting [4] of 0.551, a z-score under setting [5] of -0.241 and a z-score under setting [6] of 0.129.
For `COc1ccccc1OP(C)(=O)Nc1ccc(C)c(C)c1` (centres undefined) the same measures were -0.11, -0.346 and -0.0492.
On the same counts, the results for `CCC(=O)N1C2C3N(C(=O)CC)C1C1N(C(=O)CC)C(C(N1C(=O)CC)N3C(=O)CC)N2C(=O)CC` are 2.69, -0.244 and -1.
On to `CCN(CC)CCCOC(=O)C(O)(c1ccccc1)C1CCCCC1` (centres undefined), for which the z-score under setting [1] is 1.17, the z-score under setting [2] was -0.234 and the z-score under setting [3] is -0.128.
Take `COC(=O)c1cc2c(s1)N=C(c1ccccc1)N(C)P2(=O)N1CCOCC1` (centres undefined): the z-score is, setting by setting: under setting [4], 0.31; under setting [5], -0.315; under setting [6], -0.115.
On the same counts, the results for `CC(=O)NC(SC(=S)N(CC(C)C)CC(C)C)C(Cl)(Cl)Cl` (centres undefined) are -1.49, -0.143 and 2.12.
On the same counts, the results for `Cc1ccc(OP(=O)(Nc2ccccn2)Oc2ccc(C)cc2)cc1` are -0.548, 0.199 and 0.584.
With `Cc1ccccc1OP(=O)(Nc1ccccn1)Oc1ccccc1C`, the z-score under setting [4] was -0.472, the z-score under setting [5] was -0.274 and the z-score under setting [6] was 0.654.
For `CN(C)C(=O)Oc1noc2ccccc12` the same measures were 0.0572, -0.145 and 0.105.
As for `CCCCCOc1ccc(NP(C)(=O)Oc2ccc(Cl)cc2Cl)cc1` (centres undefined), the z-score runs as follows: under setting [4], -0.275; under setting [5], 0.433; under setting [6], 0.867.

The values above are taken from PubChem BioAssay AID1381 (University of Pittsburgh Molecular Library Screening Center, 2008).
